# Primary screen of a compound library

The chains behind the UniProt entries cited, without tags or fusion partners.
UniProt E9BF75, entry or part of it: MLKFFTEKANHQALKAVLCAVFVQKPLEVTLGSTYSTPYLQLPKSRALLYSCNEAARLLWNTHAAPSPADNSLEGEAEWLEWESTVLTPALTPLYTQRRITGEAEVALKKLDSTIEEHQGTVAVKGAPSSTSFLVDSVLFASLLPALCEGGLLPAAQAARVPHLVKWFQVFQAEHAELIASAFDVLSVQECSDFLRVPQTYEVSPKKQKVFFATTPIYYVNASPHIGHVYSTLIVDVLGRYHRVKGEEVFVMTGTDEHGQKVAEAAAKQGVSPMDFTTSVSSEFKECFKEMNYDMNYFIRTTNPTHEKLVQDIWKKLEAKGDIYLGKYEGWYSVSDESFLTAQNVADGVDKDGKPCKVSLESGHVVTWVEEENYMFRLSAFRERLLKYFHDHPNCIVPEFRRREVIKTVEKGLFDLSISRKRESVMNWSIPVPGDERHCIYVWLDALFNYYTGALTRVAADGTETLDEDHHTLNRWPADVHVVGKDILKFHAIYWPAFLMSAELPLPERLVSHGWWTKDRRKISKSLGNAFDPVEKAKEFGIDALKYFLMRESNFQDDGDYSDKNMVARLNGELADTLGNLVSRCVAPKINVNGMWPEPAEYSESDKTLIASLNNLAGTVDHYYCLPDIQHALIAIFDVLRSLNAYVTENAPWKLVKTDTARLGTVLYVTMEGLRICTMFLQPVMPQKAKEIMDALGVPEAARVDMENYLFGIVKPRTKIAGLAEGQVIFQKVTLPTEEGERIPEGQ

Measurements from “University of Dundee, Small-Polar-MMV Screening Library” (2021), ChEMBL document CHEMBL3988442.

All values are in %.
How 0% and 100% were set is not recorded. Most values in the screen are low, and negative values occur.
This is an unselected part of the compounds tested.

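Methionyl-tRNA synthetase (putative), Leishmania donovani (UniProt E9BF75). Primary screen of methionyl-tRNA synthetase; the read-out is not stated. The test concentration is not given. The values are filed as inhibition. About 68,000 compounds were tested under these conditions; 0.035% (about 24) showed 50% or more at least once.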

structure	inhibition
O=C1CCN(C(=O)c2ncoc2-c2ccco2)c2ncccc2N1	9.645%
COCCO[C@@H]1CCN(C(=O)c2occc2C)[C@H]1Cc1cnn(C)c1	19.76%
CCC(CNC(=O)Cc1cc(C)on1)Oc1cccc(F)c1 (stereo not given)	8.993%
Cc1ccc(CN2CC[C@H]3C(=O)N(Cc4cccnc4)CCO[C@H]3C2)o1	2.222%
Cc1nc(CN2C[C@@H]3CN(C(=O)[C@H]4CCCO4)C[C@@H]3C2=O)cs1	8.571%
c1ncc2c(n1)CN(Cc1nc(-c3ccoc3)no1)CC2	23.16%
CCN(C)S(=O)(=O)c1c(F)cc(NC(C)=O)cc1F	12.53%
Cc1cc(CN2CCN(C(=O)NCc3csc(C)n3)CC2)on1	22.29%
CCOc1ccc(S(=O)(=O)NCc2cccnc2N(C)C)cc1	10.8%
Cn1cc(-c2csc(N3CCN(c4nccs4)CC3)n2)cn1	9.363%
O=C(CN1CCCC1Cn1cncn1)NCCOc1ccc(F)cc1 (stereo not given)	7.542%
CCCn1ccnc1CN1CCC(Oc2ccc(Cl)cc2)(C(=O)O)CC1	9.278%
O=C(CCC1CCCC1)N1C[C@H]2CC[C@@H]1CN(Cc1ccncc1)C2	24.39%
CO[C@@H]1CCN(C(=O)c2ccccn2)[C@H]1Cc1ccccc1	14.48%
CCc1nnsc1C(=O)N1CCN(CC(O)CC)CC1 (stereo not given)	9.774%
CCCNC(=O)C(C)N1CCC(C(=O)Nc2cnn(CC)c2)CC1 (stereo not given)	19.27%
CC(c1cn2ccsc2n1)N1Cc2ncccc2C1=O (stereo not given)	9.851%
CC(NC(=O)CCOc1ccc(F)cc1)c1nnc2n1CCCCC2 (stereo not given)	3.374%
CCn1cc(C(=O)N2CCOCC2)cn1	14.36%
COc1cccc(CNc2cc(C)nc(-c3ccncc3)n2)c1OC	0.2688%
c1cc2ccc(N3CCN(Cc4ccc5c(c4)OCO5)CC3)nc2[nH]1	5.16%
CN(C)C(=O)N1CCOCC2(CCN(c3ncccn3)C2)C1 (stereo not given)	13.01%
c1csc(-c2noc(CNCCn3cccn3)n2)c1	12.57%
CC1CCCCN1C(=O)c1ccn(COc2ccc(F)cc2)n1 (stereo not given)	0.2513%
Cc1nc(C)n(CC2CCCN(CCOc3cccc(F)c3)C2)n1 (stereo not given)	9.117%
O=C([C@@H]1COC[C@H]2CN(C3CCOCC3)C[C@H]21)N1CCOCC1	15.31%
CC(C)c1nn(C)c(Cl)c1CNCC(O)c1cccc(F)c1 (stereo not given)	20.83%
O=C(NCCN1CCOCC1)c1cnc(-c2ccccc2F)s1	8.964%
O=C(NCCN1CCNCC1)c1c(O)c2ccccc2[nH]c1=O	0.4149%
Cc1cccc(-c2nccn2-c2cccc(CC(=O)O)c2)n1	17.08%
c1csc(-c2noc(CCCN3CCCC3Cn3cccn3)n2)c1 (stereo not given)	11.11%
COc1cccc(N2CCN(C(=O)C(O)c3ccccc3Cl)CC2=O)c1 (stereo not given)	9.399%
Cc1noc(C2CCN(C(=O)CN(C)c3ccc(Cl)cn3)CC2)n1	5.521%
CC(=O)Nc1nc(C)c(S(=O)(=O)NCCc2ccccn2)s1	10.44%
CCOCC1CN(Cc2ccc(OC)cc2)Cc2nn(C)cc21 (stereo not given)	6.438%
Cc1noc(C)c1CN1C[C@@H]2CCCO[C@@H]2[C@H](NS(C)(=O)=O)C1	15.56%
CCN1CC(CN(C)Cc2nc(-c3ccc(F)cc3F)oc2C)CC1=O (stereo not given)	21.5%
Cc1cc(CN2CCC3(CC2)CC(Nc2ncccn2)CO3)nn1C (stereo not given)	4.192%
Cc1ccc(CN2CC3(CCN(C(=O)c4cccnc4)C3)C2)o1	7.235%
CCN1CCN(CCCNC(=O)NC(C)c2nncn2C)CC1 (stereo not given)	10.06%
O=C(Nc1nncs1)N1CCC(CCc2ccc(O)cc2)CC1	9.044%
COc1ccc(N2Cc3nc(=O)[nH]n3C2=O)cc1	1.818%
NC(=O)c1csc(C(=O)N2CCCC(n3ccnc3)C2)c1 (stereo not given)	16.67%
O=S(=O)(C1CC1)N1CCO[C@H]2[C@@H](Oc3cccnc3)CC[C@@H]21	4.375%
O=C(N[C@H]1CN(C2CCOCC2)C[C@@H]1C1CC1)c1cc(O)no1	9.639%
c1cncc(CN2CCCCC2c2ccc(Nc3cnccn3)nc2)c1 (stereo not given)	14.06%
CC(=O)NCCNC(=O)Nc1cc(C(C)(C)C)sc1C#N	6.859%
O=C(c1ccco1)N1CCC(n2cc(-c3ccsc3)nn2)CC1	19.35%
CN(C)CC1(O)CCCN(c2nc(-c3ccccc3)no2)CC1 (stereo not given)	0.4963%
Cc1cc(C(=O)N2CCCC(Cn3cc(C4CC4)nn3)C2)nc(C)n1 (stereo not given)	9.059%
CCn1c(CC2CCN(S(=O)(=O)c3cccs3)CC2)nn(C)c1=O	1.535%
Cc1cnc(CN2CCCC(c3cc(C)[nH]n3)C2)cn1 (stereo not given)	6.069%
O=C(N1CCCC1)N1CCC2(CC1)CN(c1cccnc1)C(=O)CO2	8.786%
CC(C)NC(=O)N1CCCC2(CCN(c3ccsc3)C2=O)C1 (stereo not given)	12.89%
Cc1cccnc1CNC(=O)NC(C)Cc1c(C)nn(C)c1C (stereo not given)	12.09%
Cc1ccccc1-n1cc(CNC(=O)CC2C(=O)NCCN2C)cn1 (stereo not given)	16.72%
CCOc1ccc(C(=O)N2CCCC(n3ccnc3C)C2)cc1OC (stereo not given)	10.8%
O=S1(=O)CCN(c2nc(C3CC3)ns2)CC1	24.41%
O=c1ccc2c([nH]1)CCC(NCc1ccncc1)C2 (stereo not given)	6.091%
Cc1c(CN2CCCCC2)c(O)n(CCCO)c(=O)c1C#N	2.432%
CCC(NS(=O)(=O)N1CCOCC1)c1ccccc1OC (stereo not given)	3.237%
CCNC(=O)C1(CC2CC(c3ccccc3OC)=NO2)CCOCC1 (stereo not given)	18.65%
CC(C)N(CC(=O)Nc1ccc(Br)cc1Cl)Cc1cccnc1	-4.969%
CN(CC1(C)COC1)C(=O)c1cc(-c2ccnn2C)nc2ccccc12	4.361%
Cn1ccnc1CN1CCCC(Cc2ccccn2)C1 (stereo not given)	14.04%
Cc1cc(CN2CCC3(CC2)COC(COc2ccccn2)C3)no1 (stereo not given)	8.357%
Cn1ccc(CN2CCC3(CC2)CC(Nc2ccccn2)CO3)n1 (stereo not given)	13.04%
COc1ccc(Cl)cc1NC(=O)N1CCc2nc(NC(C)=O)sc2C1	11.31%
CCS(=O)(=O)NCC(=O)NC1(C)CCc2ccccc2C1 (stereo not given)	8.123%
CC(C)N(Cc1ccccn1)S(=O)(=O)N1CCCC1c1ccco1 (stereo not given)	14.92%

For reference, 5 entries once more:

| structure | inhibition |
|---|---|
| `O=C(CN1CCCC1Cn1cncn1)NCCOc1ccc(F)cc1` (stereo not given) | 7.542% |
| `O=C(NCCN1CCNCC1)c1c(O)c2ccccc2[nH]c1=O` | 0.4149% |
| `CN(C)C(=O)N1CCOCC2(CCN(c3ncccn3)C2)C1` (stereo not given) | 13.01% |
| `Cc1cc(CN2CCC3(CC2)CC(Nc2ncccn2)CO3)nn1C` (stereo not given) | 4.192% |
| `CCCNC(=O)C(C)N1CCC(C(=O)Nc2cnn(CC)c2)CC1` (stereo not given) | 19.27% |